Results are given in words; binding and its absence hold for the method and conditions named. In cells and extracts the contact can be indirect. Some entries that bind do so weakly or less than the wild type.
Assays:
Experiment in all cases: co-IP; MCF7 whole cell extracts (20 mM Tris-Cl pH 8.0, 137 mM NaCl, 10% glycerol, 1% Nonidet P-40), sonicated, IP overnight at 4 °C with the indicated antibodies and protein G-Sepharose, five washes, western blot; E2-treated cells
[1] = target: paralogues of XRCC4 and XLF (PAXX) (human (endogenous in MCF7)) (UniProt Q9BUH6)
[2] = target: Ku70 (human (endogenous in MCF7)) (UniProt P12956)
[3] = target: Topoisomerase I (Top1) in MCF7 cells (human (endogenous in MCF7)) (UniProt P11387)

Protein sequences, listed by entry. Tags and fused reporters are not part of them.
UniProt Q9BUH6: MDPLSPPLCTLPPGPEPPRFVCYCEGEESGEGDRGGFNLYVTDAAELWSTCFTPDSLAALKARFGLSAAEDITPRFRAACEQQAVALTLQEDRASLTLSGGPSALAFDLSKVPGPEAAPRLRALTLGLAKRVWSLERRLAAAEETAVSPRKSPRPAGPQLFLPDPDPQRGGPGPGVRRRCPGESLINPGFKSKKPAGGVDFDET
UniProt P12956: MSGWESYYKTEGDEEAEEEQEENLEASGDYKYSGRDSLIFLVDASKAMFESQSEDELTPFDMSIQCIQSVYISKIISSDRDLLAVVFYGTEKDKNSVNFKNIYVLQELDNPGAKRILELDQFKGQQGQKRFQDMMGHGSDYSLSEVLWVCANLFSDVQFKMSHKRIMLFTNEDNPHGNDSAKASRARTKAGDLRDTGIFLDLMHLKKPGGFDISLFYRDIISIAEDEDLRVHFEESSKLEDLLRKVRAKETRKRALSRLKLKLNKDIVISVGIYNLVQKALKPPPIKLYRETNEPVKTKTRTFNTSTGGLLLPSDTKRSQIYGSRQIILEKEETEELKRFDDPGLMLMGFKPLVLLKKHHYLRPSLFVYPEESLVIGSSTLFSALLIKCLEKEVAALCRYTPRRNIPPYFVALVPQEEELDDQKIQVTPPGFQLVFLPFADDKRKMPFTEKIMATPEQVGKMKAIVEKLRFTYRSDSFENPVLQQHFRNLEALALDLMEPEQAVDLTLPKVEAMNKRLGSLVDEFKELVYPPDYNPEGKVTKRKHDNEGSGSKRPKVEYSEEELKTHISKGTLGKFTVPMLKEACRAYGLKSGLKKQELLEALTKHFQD
UniProt P11387: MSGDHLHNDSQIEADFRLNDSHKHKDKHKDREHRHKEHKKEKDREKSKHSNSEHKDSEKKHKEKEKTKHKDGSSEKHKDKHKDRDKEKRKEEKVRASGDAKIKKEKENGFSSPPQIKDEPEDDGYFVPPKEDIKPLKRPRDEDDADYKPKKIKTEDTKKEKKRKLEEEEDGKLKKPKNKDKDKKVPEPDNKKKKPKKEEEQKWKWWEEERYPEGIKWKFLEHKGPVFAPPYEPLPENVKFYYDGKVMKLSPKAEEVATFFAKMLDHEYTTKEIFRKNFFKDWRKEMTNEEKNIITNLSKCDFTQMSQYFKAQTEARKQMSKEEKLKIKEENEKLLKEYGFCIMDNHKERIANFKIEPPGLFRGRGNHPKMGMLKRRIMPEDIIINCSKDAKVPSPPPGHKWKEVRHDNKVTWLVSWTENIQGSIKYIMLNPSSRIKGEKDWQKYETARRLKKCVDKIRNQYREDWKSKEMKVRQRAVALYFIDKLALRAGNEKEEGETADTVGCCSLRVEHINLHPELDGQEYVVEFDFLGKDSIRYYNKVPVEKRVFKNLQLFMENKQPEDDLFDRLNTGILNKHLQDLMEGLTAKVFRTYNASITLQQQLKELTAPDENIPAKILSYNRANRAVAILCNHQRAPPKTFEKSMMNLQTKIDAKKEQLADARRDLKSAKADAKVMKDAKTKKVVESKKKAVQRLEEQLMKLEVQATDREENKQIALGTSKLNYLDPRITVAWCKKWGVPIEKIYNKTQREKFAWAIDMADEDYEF
UniProt Q13185: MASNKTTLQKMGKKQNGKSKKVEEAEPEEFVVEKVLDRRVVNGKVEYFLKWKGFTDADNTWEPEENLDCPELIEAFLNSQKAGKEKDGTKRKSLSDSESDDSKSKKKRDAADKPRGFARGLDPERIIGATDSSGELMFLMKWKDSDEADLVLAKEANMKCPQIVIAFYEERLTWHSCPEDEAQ

## Topoisomerase I (Top1) in MCF7 cells (from UniProt P11387 1-765) (enzyme)
[1]
  binding: binds

## heterochromatin protein 1 gamma (HP1γ) (from UniProt Q13185 1-183)
[2]
  binding: binds
[3]
  binding: binds
